Experimental data from PubChem BioAssay AID651803 (National Center for Advancing Translational Sciences (NCATS), 2012).
Where “and” joins values, the source holds several entries; their conditions need not be identical. Equal entries are not always repeated. Hit rate of the full screen: of about 1,200 compounds, fewer than 10 were called active. Calls come from the whole dose curve; as a rule, active = well fitted curve in the direction sought with a large enough effect; inconclusive = small, poorly fitted or top-dose-only effect, or another doubt; inactive = no such curve, though single readings can be large or run the other way. This is one part of the list.

Chains of the proteins cited; added tags and fusions are not shown. Lines headed by an entry give the natural chain unless they say otherwise; changes in a name come on top.
UniProt P11308: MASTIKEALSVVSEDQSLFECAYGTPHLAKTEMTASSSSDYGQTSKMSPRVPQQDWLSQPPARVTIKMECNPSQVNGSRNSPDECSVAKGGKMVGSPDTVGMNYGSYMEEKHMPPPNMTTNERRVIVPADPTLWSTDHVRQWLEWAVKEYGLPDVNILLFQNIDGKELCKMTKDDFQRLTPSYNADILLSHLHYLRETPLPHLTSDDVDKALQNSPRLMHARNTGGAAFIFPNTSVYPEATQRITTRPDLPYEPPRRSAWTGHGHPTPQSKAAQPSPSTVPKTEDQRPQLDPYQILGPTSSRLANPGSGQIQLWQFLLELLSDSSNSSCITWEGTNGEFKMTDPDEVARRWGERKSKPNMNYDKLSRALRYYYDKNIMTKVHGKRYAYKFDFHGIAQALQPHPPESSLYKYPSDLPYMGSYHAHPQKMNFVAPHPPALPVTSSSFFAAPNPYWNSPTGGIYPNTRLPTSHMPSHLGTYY

Each molecule was assayed against Transcriptional regulator ERG (Homo sapiens) (UniProt P11308) (assay: qHTS for Small Molecule Inhibitors of the ERG Ets/DNA interaction: TR assay against cherry picks). Conditions: ERG Ets domain-DNA fluorescence polarization, Texas red probe; at 154 µM (top of the series).
From the text: The Ets family of proteins is a family of ~30 conserved transcription factors defined by the presence of an ~85 amino acid domain referred to as the Ets domain, which mediates sequence-specific DNA binding to a core DNA element GGAA/T.The Ets family member ERG has been linked to several neoplasms. […] More extensive studies of the effects of over-expression of ERG in prostate cells have recently been carried out and have shown that over-expression of ERG results in increased invasion. […] We will carry out a high throughout screen to identify inhibitors of the interaction between ERG and DNA using a fluorescence polarization (FP) assay with a His-tagged ERG Ets domain and fluorescently-labeled DNA probes to develop small molecule inhibitors of this interaction as probes to test this hypothesis and lay the groundwork for the development of targeted therapies against ERG. This is the confirmation against the cherry picks in theprimary screening assay. NIH Molecular Libraries Probe Production Network [MLPCN] NIH Chemical Genomics Center [NCGC] Grant: NS066464 PI Name: John Bushweller, University of Virgina
1.5 ul of protein solution (1 uM ERG domain in 300mM KCl, 50mM Tris-HCl, 1mM EDTA, 1mM DTT, pH 7.5); 20 nl Control plate and compound library plate; 1.5 ul mixture of 5 nM Fluorescein-DNA and 100nM Texas-615-DNA solution in same buffer as above solution; measure fluorescence polarization sequentially for fluorescein (Excitation = 480 nm, Emission = 535s, 535p nm) and Texas red (Excitation = 555 nm, Emission = 632s, 632p nm).
Note: % of control where 0% means no effect.

Structure (SMILES)	activity change, negative = inhibition
COc1cccc(-n2c(/C=C/c3cccc(C)c3)nc3ccccc3c2=O)c1	inactive: -0.532%
O=C(CCc1nnc2ccc(NCc3ccccc3Cl)nn12)N1CCC2(CC1)OCCO2	inactive: 6.17%
N#CCN1CCN(c2ccc(C(F)(F)F)cc2)CC1	inactive: -8.11%
CN1C[C@@H]2C[C@@H](c3cccn3-c3ccccn3)N3CCC[C@@]23C1=O	inactive: 8.76%
NC(=O)Cn1cc(C=C2C(=O)NC(=O)NC2=O)c2ccccc21	inactive: 0.488%
OC(COCc1ccc(Cl)cc1)CN1CC=C(c2ccccc2)CC1 (stereo not given)	inactive: 0.282%
CC12CC3CC(C)(C1)CC(N)(C3)C2	inactive: -11.6%
Cc1ccc(-c2nc3ccccc3c(=O)n2-c2cccc(O)c2)cc1	inactive: 14.3%
CN1CCc2cccc(Cl)c2CC1	inactive: 0.773%
C[C@]12CCC(=O)C=C1CC[C@@H]1[C@@H]2CC[C@@]2(C)[C@H]1CC[C@]2(C)O	inactive: 3.26%
CC(=O)N1CC(=O)Nc2ccc(F)cc2C1c1ccccc1 (stereo not given)	inactive: -2.99%
CC(C)N1CCN(Cc2ccccc2C(F)(F)F)CC1CCO (stereo not given)	inactive: -12.5%
COc1ccc2[nH]c(C)c(CCNCc3cccnc3)c2c1	inactive: 4.76%
O=c1c2ccccc2nc(-c2ccco2)n1-c1ccccc1	inactive: -18.9%
COc1ccc(C(c2ccc(OC)cc2)C(Cl)(Cl)Cl)cc1	inactive: 2.21%
C=C1C2C[C@@]3([C@@H]1O)[C@@H](C[C@@H]2O)[C@@]12C4[C@@H]3C[C@@H]1[C@@](C)(CC[C@@H]2O)CN4CC	inactive: 8.35%
O=C(CN1CC=C(c2ccccc2)CC1)Nc1cc(Cl)ccc1Cl	inactive: -8.17%
COc1ccccc1N1CCN(CCc2c[nH]c3cc4c(cc23)OCO4)CC1	inactive: -9.36%
O=C(Cc1ccccc1)Oc1ccc([N+](=O)[O-])cc1	inactive: 4.7%
O=C(COc1ccccc1)NCCc1cnc[nH]1	inactive: -4.24%
C[N+]1(C)[C@@H]2CC[C@H]1CC(OC(=O)C(CO)c1ccccc1)C2 (stereo not given in full)	inactive: 3.7%
CC(=O)C1(c2ccccc2)CCN(C(=O)C2CCC(=O)N(CCc3cccc(F)c3)C2)CC1 (stereo not given)	inactive: -1.22%
COc1cc(C[C@@H](C)N)c(OC)cc1I	inactive: -8.87%
Nc1ccc2nonc2c1[N+](=O)[O-]	inactive: 36.1%
COc1cc(C(c2c(O)c3ccccc3oc2=O)c2c(C)n(C)n(-c3ccccc3)c2=O)ccc1O (stereo not given)	inactive: -12%
CN1[C@@H]2CCC[C@H]1CC(=O)C2	inactive: 2.19%
COC(=O)NC(=C(Cl)Cl)P(=O)(c1ccccc1)c1ccccc1	inactive: 2.4%
NCCc1cc(O)c(O)cc1O	inactive: 39.4% and inactive: 1.72%
C[C@]12CCC(=O)C[C@@H]1CC[C@@H]1[C@@H]2CC[C@]2(C)[C@@H](O)CC[C@@H]12	inactive: -2.65%
CC(C)(O)/C=C/C(=O)C(C)(O)C1C(O)CC2(C)C3CC=C4C(C=C(O)C(=O)C4(C)C)C3(C)C(=O)CC12C (stereo not given)	inactive: 4.23%

Compounds above containing a nitro group on carbon, in the order listed:
Structure (SMILES)	activity change, negative = inhibition
O=C(Cc1ccccc1)Oc1ccc([N+](=O)[O-])cc1	inactive: 4.7%
Nc1ccc2nonc2c1[N+](=O)[O-]	inactive: 36.1%
